Reference: the supplement of paper PMC12578635
Some of the results follow. Cut-off read from the data, not from the text of the source: active = 150% or more and inactive = the rest. Repeats are few or missing, and single values can be far off.

Tested on: Staphylococcus aureus JE2-lux inside RAW 264.7 macrophages
Assay: intracellular bacterial bioluminescence relative to DMSO vehicle; higher = higher intracellular bacterial metabolic activity
Conditions: 10 µM; treatment time 4 h; gentamicin 50 µg/ml

Row | SMILES | intracellular bacterial bioluminescence
1 | COc1ccc(NC(=O)Nc2nc(SCC(=O)C(C)(C)C)ns2)cc1 | inactive: 124%
2 | CCc1cc(-c2csc(S(=O)(=O)N3CC=C(c4ccccc4)CC3)c2)on1 | inactive: 81.3%
3 | Cc1ccc(-c2nc3sc(N4CCN(C(=O)c5cnccn5)CC4)nn3c2NC2CCCC2)cc1 | inactive: 93.9%
4 | COc1ccc(-c2noc(-c3cccnc3N3CCN(c4ccccc4F)CC3)n2)cc1 | inactive: 66.2%
5 | O=C(CC(NCc1ccccn1)C(=O)O)Nc1cccc([N+](=O)[O-])c1 (stereo unspecified) | inactive: 99.6%
6 | COc1cc2nc(NC(=O)c3ccco3)sc2cc1OC | inactive: 112%
7 | Nc1c(-c2nc(-c3ccc4c(c3)OCO4)no2)nnn1-c1cccc(C(F)(F)F)c1 | inactive: 110%
8 | CCOc1ccc2nc(NC(=O)C3CCCN(c4ncnc5sc(CC)cc45)C3)sc2c1 (stereo unspecified) | inactive: 61%
9 | Cc1cc2c(cc1C)NC(CC(=O)Nc1ccc(SC(F)F)cc1)C(=O)N2 (stereo unspecified) | inactive: 77.3%
10 | c1ccc(Cc2nc3ccccc3c3nnc(SCc4ccccn4)n23)cc1 | inactive: 79.7%
11 | C#CCOc1cccc(C2CC(=O)Nc3c2c(C)nn3-c2nncc(-c3cccc(OC)c3)n2)c1 (stereo unspecified) | inactive: 100%
12 | COC(=O)Cn1/c(=N/C(=O)c2ccc(F)cc2)sc2cc(S(N)(=O)=O)ccc21 | inactive: 126%
13 | Cc1ccc(NS(=O)(=O)c2cc(-c3nc(C)cs3)cs2)c(Br)c1 | inactive: 54.8%
14 | COc1ccc(C2CC(=O)n3nc(-c4ccc(Cl)c(Cl)c4)nc3S2)cc1 (stereo unspecified) | inactive: 119%
15 | Cc1nn(-c2nc3ccccc3s2)c2nc(C(C)(C)C)cc(C(F)(F)F)c12 | inactive: 105%
16 | O=C(O)c1cccnc1SCC(=O)N1CCN(c2ccccn2)CC1 | inactive: 107%
17 | CCOC(=O)c1s/c(=N\C(=O)CN2C(=O)c3ccccc3C2=O)n(C)c1C | inactive: 22%
18 | Cc1cccc(N2CCN(CCCNC(=O)c3cc(-c4ccccn4)nc4ccccc34)CC2C)c1 (stereo unspecified) | inactive: 35.4%
19 | O=C(c1ccc(F)c(F)c1)N1CCN=C1SCc1cccnc1 | inactive: 107%
20 | Cc1ccc(-c2cc3nc(-c4cccnc4)cc(C(F)(F)F)n3n2)cc1 | inactive: 141%
21 | CC1CCc2[nH]nc(-c3nc(-c4ccc(Cl)cc4)no3)c2C1 (stereo unspecified) | inactive: 128%
22 | CCOC(=O)c1cc(C)nc2c1c(=O)n(CC(=O)NCc1ccc(C)cc1)c(=O)n2C | inactive: 55.4%
23 | O=C(Nc1ccccc1-n1cccc1)c1cccc2nccnc12 | inactive: 75.7%

Look-ups from the list.
Under intracellular bacterial bioluminescence, Nc1c(-c2nc(-c3ccc4c(c3)OCO4)no2)nnn1-c1cccc(C(F)(F)F)c1 has inactive: 110%
Under intracellular bacterial bioluminescence, COc1cc2nc(NC(=O)c3ccco3)sc2cc1OC has inactive: 112%

Continued:

Row | SMILES | intracellular bacterial bioluminescence
24 | CCN(CC)CCN1C(=O)C(O)=C(C(=O)c2cc3ccccc3o2)C1c1ccccn1 (stereo unspecified) | inactive: 98.7%
25 | Cc1ccc(C)c(S(=O)(=O)Nc2cc3c4c(c2)CCC(=O)N4CCC3)c1 | inactive: 107%
26 | Cc1ccc2c(c1)C(c1ccc(F)cc1)N(C(=O)c1cc3ccccc3oc1=O)CC(=O)N2 (stereo unspecified) | inactive: 94.5%
27 | O=C1Nc2ccc(Br)cc2/C1=C1/SC(=S)N(NC(=O)c2ccncc2)C1=O | inactive: 95.5%
28 | O=C(CNCc1cccnc1)Nc1ccc2c(c1)OCO2 | inactive: 109%
29 | COc1ccc(Br)cc1-c1nc(Cn2nc(C)c3c(C)onc3c2=O)c(C)o1 | inactive: 2.57%
30 | O=C(O)c1ccc(NS(=O)(=O)c2cc3c4c(cccc4c2)C(=O)NC3=O)cc1 | inactive: 83.8%
31 | COc1ccc2nc(-n3nc(C)c4c3NC(=O)CC4c3cc(F)ccc3F)sc2c1 (stereo unspecified) | inactive: 97%
32 | N#Cc1ccc(C(=O)Nc2cccc3c2C(=O)NC3=O)cc1 | inactive: 71.5%
33 | CCN(CC)C(=O)c1sc2nc3c(cc2c1N)C(=O)CC(C)(C)C3 | inactive: 137%
34 | CCNC(=O)CC1Sc2ccc(C(F)(F)F)cc2NC1=O (stereo unspecified) | inactive: 84.6%
35 | CSc1nnc(C)c(=O)n1COC(=O)c1ccc(Cl)c([N+](=O)[O-])c1 | inactive: 92%
36 | COc1ccc(C)cc1NC(=O)C1CCN(C(=O)Nc2ccccc2)CC1 | inactive: 27.3%
37 | N#C/C(=C/Nc1ccc(F)cc1[N+](=O)[O-])c1nc(-c2ccc(F)cc2)cs1 | inactive: 84.8%
38 | Cc1cc(=O)n2nc(CN(C(=O)C(C)C)c3ccccc3)nc2[nH]1 | inactive: 118%
39 | CC1=C(C(=O)OC(C)C)C(c2cccnc2)C2=C(CC(C)(C)CC2=O)N1 (stereo unspecified) | inactive: 76.3%
40 | Cc1ccc(NC(=S)NCCCNc2nc3c(C)c(C)ccc3cc2C#N)c(C)c1 | inactive: 119%
41 | C=CCNC(=O)C(=O)Nc1ccc2c(c1)N(S(=O)(=O)c1cccs1)CCC2 | inactive: 105%
42 | Cc1nn2c(SCC(=O)c3cccc([N+](=O)[O-])c3)nnc2[nH]c1=O | inactive: 116%
43 | Cc1nc2cccc(NC(=O)c3cc(=O)c4cc(C)c(C)cc4o3)c2[nH]1 | inactive: 63.5%
44 | Cc1ccc(S(=O)(=O)NCc2ccc3[nH]c(C)cc3c2)cc1 | inactive: 110%
45 | COCCn1ccc2nc(C)c(C(=O)NCc3ccc(Br)cc3)cc2c1=O | active: 153%
46 | O=C(CC1(O)C(=O)Nc2ccccc21)c1cccc(-n2cccc2)c1 (stereo unspecified) | inactive: 84.3%
